Data taken from article PMC3638400 (Philosophical Transactions of the Royal Society B: …, 2013).
No constants are given. Whether binding was seen depends on the method and setting. Some results given as binding are weak or reduced against the parent protein; the word gives no strength.

Amino acid sequences for entries named in this document (tags omitted).
UniProt P14136: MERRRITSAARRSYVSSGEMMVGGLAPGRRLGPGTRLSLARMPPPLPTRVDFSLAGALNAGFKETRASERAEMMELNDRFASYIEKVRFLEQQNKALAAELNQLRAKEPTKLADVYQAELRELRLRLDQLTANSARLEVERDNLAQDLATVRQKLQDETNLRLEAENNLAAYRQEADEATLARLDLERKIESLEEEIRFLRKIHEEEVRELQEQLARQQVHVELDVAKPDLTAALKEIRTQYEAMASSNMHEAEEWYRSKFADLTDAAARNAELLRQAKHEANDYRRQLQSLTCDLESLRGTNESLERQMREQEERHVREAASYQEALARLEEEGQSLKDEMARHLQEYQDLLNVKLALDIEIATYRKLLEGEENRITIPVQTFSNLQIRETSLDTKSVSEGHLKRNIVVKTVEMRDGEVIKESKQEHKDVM
UniProt P08670: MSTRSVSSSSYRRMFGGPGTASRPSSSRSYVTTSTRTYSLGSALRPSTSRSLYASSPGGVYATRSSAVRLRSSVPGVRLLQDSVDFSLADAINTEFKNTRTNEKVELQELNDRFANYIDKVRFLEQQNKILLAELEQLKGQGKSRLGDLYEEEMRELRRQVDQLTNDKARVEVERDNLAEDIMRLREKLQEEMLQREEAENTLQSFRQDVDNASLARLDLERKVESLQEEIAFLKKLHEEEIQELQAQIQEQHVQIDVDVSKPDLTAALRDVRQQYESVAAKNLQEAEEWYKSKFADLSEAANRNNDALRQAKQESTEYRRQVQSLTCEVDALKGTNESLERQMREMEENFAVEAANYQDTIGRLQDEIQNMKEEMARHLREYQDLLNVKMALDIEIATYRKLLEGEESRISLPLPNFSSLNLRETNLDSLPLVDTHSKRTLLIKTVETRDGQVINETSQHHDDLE

What was measured:
[1] = target: T1, glial fibrillary acidic protein (GFAP) (human, UniProt P14136 1-432); test: SPR; Biacore 3000; desmin, GFAP and vimentin immobilised on a CM5 chip; CRYAB injected at 20 g ml^-1 (so in the source) for 7 min at 37°C, then washed 7 min; 10 mM HEPES pH 7.4, 0.15 M NaCl, 3.4 mM EDTA, 0.005% P20; double referencing; both purified
T1 construct: glial fibrillary acidic protein, recombinant human; Assembled into filaments for co-sedimentation and viscometry; immobilised on the chip for SPR; also called WT GFAP; GFAP filaments

[2] = target: vimentin (UniProt P08670); test: as above
[3] = target: vimentin (UniProt P08670); test: co-sedimentation; high-speed; filaments assembled at 0.2 mg ml^-1 with WT CRYAB at 1 : 1 molar ratio; 20 mM HEPES, 100 mM NaCl, 1 mM MgCl2, 1 mM DTT, pH 6.3; 23, 39 or 44°C; both purified
[4] = target: T1, glial fibrillary acidic protein (GFAP); test: co-sedimentation; CRYAB added to preformed GFAP filaments at different pH and temperature; data not shown; both purified
[5] = target: T1, glial fibrillary acidic protein (GFAP); test: co-sedimentation; high-speed; filaments assembled at 0.2 mg ml^-1 with WT CRYAB at 1 : 1 molar ratio; 20 mM HEPES, 100 mM NaCl, 1 mM MgCl2, 1 mM DTT, pH 6.8 or 7.3; 23, 39 or 44°C; both purified
[6] = target: vimentin (UniProt P08670); test: as above

Measured: binding

B1: wild-type αB-crystallin (CRYAB, HSPB5) (natural protein, human, UniProt P02511 1-175, looked up)
chain: MDIAIHHPWIRRPFFPFHSPSRLFDQFFGEHLLESDLFPTSTSLSPFYLRPPSFLRAPSWFDTGLSEMRLEKDRFSVNLDVKHFSPEELKVKVLGDVIEVHGKHEERQDEHGFISREFHRKYRIPADVDPLTITSSLSSDGVLTVNGPRKQVSGPERTIPITREEKPAVTAAPKK
notes: αB-crystallin (CRYAB, HSPB5), human; Polydisperse oligomer (apparent size about 520 kDa by SEC); also called WT CRYAB; WT αB-crystallin
binds: all assays above

B2: R120G αB-crystallin (R120G CRYAB) (natural protein, human, UniProt P02511 1-175, looked up)
chain: MDIAIHHPWIRRPFFPFHSPSRLFDQFFGEHLLESDLFPTSTSLSPFYLRPPSFLRAPSWFDTGLSEMRLEKDRFSVNLDVKHFSPEELKVKVLGDVIEVHGKHEERQDEHGFISREFHGKYRIPADVDPLTITSSLSSDGVLTVNGPRKQVSGPERTIPITREEKPAVTAAPKK
notes: αB-crystallin (CRYAB, HSPB5), human, with the disease-causing mutation R120G; Mutation found in a human family with desmin-related myopathy and cataract; Oligomer of apparent size 684 kDa by SEC; also called CRYAB R120G
binds: [2]
